In patent EP0461264A1, “ETHYNYLPHENYL DERIVATIVE, PRODUCTION THEREOF, AND REMEDY FOR DISEASES OF CIRCULATORY ORGANS CONTAINING THE SAME AS ACTIVE INGREDIENT” (KAKEN PHARMACEUTICAL CO., LTD., priority 1989, dated 1991):
Structures can show the parent of a compound that is named as a salt. At least one compound was matched to its structure with a doubt left.

Tested on: convulsion caused by pentylenetetrazole
Assay: Activity against convulsion caused by pentylenetetrazole (Test Example 6)
Format: in vivo, Slc: ddy male mice
Settings: summary of Table 4
Description: Slc: ddy male mice weighing 24 to 32 g (5 weeks) were bred under an environment of 22° to 24° C room temperature and 60 % humidity for 1 week, and then the bred mice were subjected to a test. The test was carried out as the following procedure. One hour after the oral administration of a test compound, 40 mg/kg of pentylenetetrazole was administered in a caudal vein. Appearance of tonic extensive convulsion was measured as an indication, and anticonvulsive activity was examined. Each test compound was suspended in a 0.5 % solution of methyl cellulose, which was used for a control group.

SMILES: COC(=O)C1=C(C)NC(C)=C(C(=O)OCCN(C)Cc2ccccc2)C1c1cccc([N+](=O)[O-])c1 (centres unmarked) [Nicardipine, 2-(N-benzyl-N-methylamino)ethyl, methyl 2,6-dimethyl-4-(3-nitrophenyl)-1,4-dihydropyridinedicarboxylate hydrochloride, reference compound]
- anticonvulsive activity: showing anticonvulsive activity

SMILES: COCCOC(=O)C1=C(C)NC(C)=C(C(=O)OC(C)C)C1c1cccc([N+](=O)[O-])c1 (centres unmarked) [Nimodipine, isopropyl, 2-methoxyethyl 2,6-dimethyl-4-(3-nitrophenyl)-1,4-dihydropyridinedicarboxylate, reference compound]
- anticonvulsive activity: showing anticonvulsive activity
